Reference: PubChem BioAssay AID1347076 (National Center for Advancing Translational Sciences (NCATS), 2019)
Out of some 400,000 compounds screened, about 13,000 (3.2%) were called active. Inconclusive results, whose numbers are uncertain, are shown with a selection of clear calls. Calls come from the whole dose curve; as a rule, active = well fitted cell-killing curve with a large enough effect; inconclusive = small, poorly fitted or top-dose-only effect, or effect the other way; inactive = flat fitted curve, though single readings scatter. Potencies of inconclusive entries are doubtful fits and often do not repeat.

Experiment: qHTS assay for MDR1-selective chemotherapeutics: Primary screen using the drug-selected MDR subline cells KB-V1; note: nearly all actives have a fitted effect of over 60% in size
Details: KB-V1 MDR cells viability, CellTiter-Glo, 72 h; activity change, negative = cytotoxicity: at 46.1 µM (top of the series)
How it was run: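 Drug-selected KB-V1 cells, grown in DMEM lacking phenol red with 10% FBS, receive compound titrations; after three days at 37 degrees C, surviving cell ATP is quantified by CellTiter-Glo luminescence and responses normalized and curve-fitted.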
% is set by controls: 0 for no effect and ±100 for the full control effect; potency is the fitted concentration of half-maximal effect.

Question: With `CCC1(c2ccc(F)cc2)NC(=O)N(CC(=O)N2CCN(S(=O)(=O)c3ccc(Cl)cc3)CC2)C1=O` (stereo unspecified) as the molecule, how does the Potency read?
Answer: inconclusive: 11.6 µM [rising, partial curve]

Question: For `COc1ccc2[nH]c(=O)c(CN(CC3CCCO3)C(=O)Nc3ccc(F)cc3)cc2c1` (stereo unspecified), which Potency is on record?
Answer: active: 2.59 µM

Question: For `CSCCC1C(C#N)=C(N)Oc2n[nH]c(-c3cccs3)c21` (stereo unspecified), which activity change, negative = cytotoxicity is on record?
Answer: inconclusive: 32.6%

Question: With `Cc1ccc(N)cc1NC(=O)CN1CCOCC1` as the molecule, how does the Potency read?
Answer: inconclusive: 29.1 µM [rising, single point]

Question: Which Potency does the source give for `C=C(C)COc1ccc(-c2nc(N)ncc2Oc2ccc(OC)cc2)c(O)c1` here?
Answer: inconclusive: 11.6 µM [cytotoxic, partial curve, poor fit]

Question: Which Potency does the source give for `COc1ccc(N2C(=O)CC(Nc3cccc(C(C)=O)c3)C2=O)cc1OC` (stereo unspecified) here?
Answer: inconclusive: 18.4 µM [rising, partial curve, poor fit]

Question: With `CCOC(=O)c1ccc(S(=O)(=O)Nc2ccccc2-c2nnn(CC)n2)cc1` as the molecule, how does the Potency read?
Answer: active: 16.4 µM

Question: With `CC(C)CC(N)c1csc(NC(=O)Nc2ccccc2C(C)C)n1` (stereo unspecified) as the molecule, how does the Potency read?
Answer: inconclusive: 20.6 µM [cytotoxic, single point]

Question: For `COc1cc(SC)ccc1C(=O)N1CCN(c2ccccc2OC)CC1`, which Potency is on record?
Answer: active: 16.4 µM

Question: For `COc1ccc(/C(N)=N/OC(=O)CCC2CCCC2)cc1`, which “activity change, negative = cytotoxicity” value is on record?
Answer: inactive: 2.45%

Question: With `O=C(Nc1cccc(NC(=O)c2cncc(Br)c2)c1)c1cncc(Br)c1` as the molecule, how does the Potency read?
Answer: inconclusive: 1.3 µM [cytotoxic, single point]

Question: Which Potency does the source give for `Oc1c(Cl)cc(Cl)cc1C=Nc1ccc(N2CCOCC2)cc1` here?
Answer: inconclusive: 29.1 µM [rising, single point]

Question: With `Cc1ccc(S(=O)(=O)N2CCCC(c3nc(-c4ccc(C)o4)no3)C2)cc1` (stereo unspecified) as the molecule, how does the “activity change, negative = cytotoxicity” value read?
Answer: inactive: -8.77%

Question: Which “activity change, negative = cytotoxicity” value does the source give for `Cc1nc2nc(C)c(NS(=O)(=O)c3ccc(F)cc3)c(=O)n2[nH]1` here?
Answer: inactive: -16.4%

Question: Which “activity change, negative = cytotoxicity” value does the source give for `O=C(Nc1cccc(C(=O)O)c1)Nc1cccc2ccccc12` here?
Answer: inactive: 8.36%

Question: With `CCOC(=O)C1=C(COC(=O)CCc2ccccc2)NC(=O)NC1C` (stereo unspecified) as the molecule, how does the Potency read?
Answer: inconclusive: 16.4 µM [rising, partial curve, poor fit]

Question: With `COCc1cccc(-c2csc(C(NC(C)=O)c3cccc(OC)c3)n2)c1` (stereo unspecified) as the molecule, how does the “activity change, negative = cytotoxicity” value read?
Answer: inactive: -1.99%

Question: With `COC(=O)[C@@]12C[C@@H](CC(=O)NCc3cccc(C(F)(F)F)c3)C(=O)N(Cc3ccc4c(c3)OCO4)C1=CCC(C)(C)C2` as the molecule, how does the Potency read?
Answer: active: 20.6 µM

Question: With `CCOC(=O)N1CCN(C(=O)c2cc(COc3cccc(C(C)=O)c3)on2)CC1` as the molecule, how does the Potency read?
Answer: inconclusive: 20.6 µM [cytotoxic, single point]

Question: With `Cc1cc(S(=O)(=O)c2ccc([N+](=O)[O-])cn2)ccc1Br` as the molecule, how does the Potency read?
Answer: inconclusive: 32.6 µM [cytotoxic, partial curve, poor fit]

Question: For `Cc1ccc2c(c1)nnn2C1CCN(CC(=O)N(c2ccccc2)c2ccccc2)CC1`, which Potency is on record?
Answer: active: 9.2 µM

Question: For `Cc1ccc(NC(=O)c2sc3nc4n(c(=O)c3c2C)CCCCC4)c(Br)c1`, which Potency is on record?
Answer: inconclusive: 16.4 µM [rising, single point]

Question: Which Potency does the source give for `CN(C)c1oc(/C=C/c2ccccc2)nc1C#N` here?
Answer: inconclusive: 3.66 µM [cytotoxic, partial curve, poor fit]

Question: Which Potency does the source give for `Cc1c(C(=O)Nc2ccc3oc(-c4cccnc4)nc3c2)oc2ccccc12` here?
Answer: inconclusive: 0.82 µM [cytotoxic, full curve]

Question: Which “activity change, negative = cytotoxicity” value does the source give for `COCCNc1oc(/C=C/c2ccccc2)nc1C#N` here?
Answer: inactive: -0.105%

Question: With `O=C(Nc1ccc(N2CCN(C(=O)c3ccccc3)CC2)cc1)c1cccnc1` as the molecule, how does the Potency read?
Answer: inconclusive: 18.4 µM [cytotoxic, single point]

Question: With `Cc1ccc(S(=O)(=O)N2[C@@H](c3ccc(Br)cc3)C(C(=O)O)=CC[C@H]2c2ccc(C(C)C)cc2)cc1` as the molecule, how does the “activity change, negative = cytotoxicity” value read?
Answer: inactive: -2.37%

Question: Which Potency does the source give for `COc1ccc(CC(=O)N2CCN(c3cccc(C)c3C)CC2)cc1` here?
Answer: inconclusive: 11.6 µM [cytotoxic, partial curve]

Question: With `CNC(=O)C(=O)Nc1ccc(C)cc1C` as the molecule, how does the Potency read?
Answer: inconclusive: 29.1 µM [rising, single point]

Question: Which Potency does the source give for `Cn1c(CNC(=O)C2CCC(=O)N(CCc3cccc(F)c3)C2)nc2ccccc21` (stereo unspecified) here?
Answer: inconclusive: 20.6 µM [rising, single point]

Question: For `CN1CCN(C(=O)c2ccc(CSc3ccc(Cl)cc3)cc2)CC1`, which Potency is on record?
Answer: active: 7.31 µM

Question: With `COc1ccccc1CNc1nc(NCCOc2ccccc2)c2sccc2n1` as the molecule, how does the Potency read?
Answer: active: 20.6 µM

Question: With `COC(=O)c1c(NC(NC(=O)CC(C)C)C(Cl)(Cl)Cl)sc2c1CCC2` (stereo unspecified) as the molecule, how does the Potency read?
Answer: active: 18.4 µM

Question: With `Cn1c(CN2CCOCC2)nc2cc(NC(=O)c3ccc(Cl)cc3)ccc21` as the molecule, how does the Potency read?
Answer: inconclusive: 13 µM [cytotoxic, partial curve, poor fit]

Question: For `COC(=O)c1ccc(COC(=O)Cc2n[nH]c(=O)c3ccccc23)cc1`, which Potency is on record?
Answer: inconclusive: 32.6 µM [cytotoxic, single point]

Question: With `COc1ccc(S(=O)(=O)N2CCN(CC(=O)Nc3cc(Cl)ccc3Cl)CC2)cc1` as the molecule, how does the Potency read?
Answer: inconclusive: 2.31 µM [cytotoxic, partial curve, poor fit]

Question: With `C=CCc1cc(Cl)ccc1OCCCNC(C)C` as the molecule, how does the Potency read?
Answer: inconclusive: 29.1 µM [cytotoxic, single point]

Question: Which Potency does the source give for `O=C(O)Cn1nc(-c2ccccc2)cc1-c1ccccc1` here?
Answer: inconclusive: 20.6 µM [rising, partial curve, poor fit]

Question: With `CCn1ncc(/C=N\NC(=O)c2cc(-c3ccc(C)cc3C)nc3ccccc23)c1C` as the molecule, how does the Potency read?
Answer: inconclusive: 29.1 µM [cytotoxic, single point]

Question: With `O=c1c2ccccc2sc2c(CO)ccc(NCCN3CCCCC3)c12` as the molecule, how does the Potency read?
Answer: active: 16.4 µM

Question: For `Cc1cc(C)n(CC2CC(=O)N(c3ccc(F)c(Cl)c3)C2=O)n1` (stereo unspecified), which “activity change, negative = cytotoxicity” value is on record?
Answer: inactive: 3.42%

Question: With `CCCc1nc2ccc(C)cn2c1Cc1cccc(Cl)c1` as the molecule, how does the “activity change, negative = cytotoxicity” value read?
Answer: inactive: -8.3%

Question: For `O=C(COC(=O)c1ccc([N+](=O)[O-])o1)Nc1cccc(S(=O)(=O)N2CCCCC2)c1`, which “activity change, negative = cytotoxicity” value is on record?
Answer: inactive: -15.2%

Question: With `CCN(CC)S(=O)(=O)c1cc(NS(=O)(=O)c2c(Cl)cccc2Cl)ccc1C` as the molecule, how does the Potency read?
Answer: inconclusive: 10.3 µM [cytotoxic, partial curve, poor fit]

Question: For `O=C1CN(C(=O)COC(=O)CCC(=O)c2ccc(F)cc2)c2ccccc2N1`, which “activity change, negative = cytotoxicity” value is on record?
Answer: inactive: -3.82%

Question: For `CCN(CC)CCCNC(=O)CSc1nc2nc(C)c(Cc3ccccc3C)c(C)n2n1`, which Potency is on record?
Answer: inconclusive: 2.06 µM [rising, full curve]
